PubChem BioAssay AID1159579 | Peter MacCallum Cancer Centre – 2015

Assay: 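Follow-up screen seeking modulators of motility in lymphatic endothelial cells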 (follow-up of hits)
System: human dermal lymphatic endothelial cells
Knock-down reagent: single siRNA against human genes, 25 nM
Measurement: 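High content images of wound closure area and cell nuclei counts, each the average of two wells, expressed against mock transfection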
Scale: migration relative to mock: higher = more migration into the scratch; mean nuclei count: higher = more cells remaining
Call rule: 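a ratio of at most 0.6 or at least 1.3 marks altered migration and an active call; a mean nuclei count under 3300 forces an inactive call regardless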
Calls: active = migration changed (impaired or accelerated); inactive = no migration change, or too few cells
This is an unselected part of about 2,000 deposited reagents. 549 of all reagents (27%) were called active. 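Some migration ratios are negative; siRNAs with too few cells are inactive whatever their migration ratio.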 A number with no mark means an inactive call. Reagents against one gene are numbered here. Not given: the time to read-out.

gene knocked down	siRNA no.	migration relative to mock	migration and cell number class	mean nuclei count
EFNA3	1	0.51 (active)	migration reduced	5103
EFNA3	2	1.08	no change in migration or cell number	6604
EFNA3	3	0.92	no change in migration or cell number	6084
EFNA3	4	0.46 (active)	migration reduced	5110
PPIA	1	1.19	no change in migration or cell number	4643
PPIA	2	1.25	no change in migration or cell number	4473
PPIA	3	0.88	no change in migration or cell number	5058
PPIA	4	1.06	no change in migration or cell number	6476
FLG2	1	0.41 (active)	migration reduced	4858
FLG2	2	0.9	no change in migration or cell number	4392
FLG2	3	0.96	no change in migration or cell number	6424
FLG2	4	0.48 (active)	migration reduced	5750
SNAI1	1	0.86	no change in migration or cell number	4578
SNAI1	2	0.46 (active)	migration reduced	4494
SNAI1	3	0.62	no change in migration or cell number	5116
SNAI1	4	0.99	no change in migration or cell number	6908
C18orf32	1	1.06	no change in migration or cell number	5283
C18orf32	2	0.91	no change in migration or cell number	4890
C18orf32	3	1.13	no change in migration or cell number	4212
C18orf32	4	1.15	no change in migration or cell number	5596
VAV3	1	0.74	no change in migration or cell number	6780
VAV3	2	0.99	no change in migration or cell number	6532
VAV3	3	0.78	no change in migration or cell number	6674
VAV3	4	1.02	no change in migration or cell number	6630
PPP1CA	1	0.55 (active)	migration reduced	5332
PPP1CA	2	0.53 (active)	migration reduced	5748
PPP1CA	3	-0.84	too few cells; migration not scored	3256
PPP1CA	4	0.7	no change in migration or cell number	5820
SPATS2L	1	0.78	no change in migration or cell number	6021
SPATS2L	2	0.9	no change in migration or cell number	6256
SPATS2L	3	0.5 (active)	migration reduced	5406
SPATS2L	4	1.16	no change in migration or cell number	6202
CYSRT1	1	0.83	no change in migration or cell number	6222
CYSRT1	2	0.94	no change in migration or cell number	5410
CYSRT1	3	1.04	no change in migration or cell number	5936
CYSRT1	4	0.92	no change in migration or cell number	5533
TPO	1	0.28 (active)	migration reduced	4269
TPO	2	0.97	no change in migration or cell number	6510
TPO	3	1.01	no change in migration or cell number	4473
TPO	4	0.44	too few cells; migration not scored	2802
PGAM5	1	0.82	no change in migration or cell number	6424
PGAM5	2	0.74	no change in migration or cell number	6654
PGAM5	3	0.99	no change in migration or cell number	7517
PGAM5	4	0.92	no change in migration or cell number	7001
SLC25A34	1	1.23	no change in migration or cell number	5830
SLC25A34	2	0.92	no change in migration or cell number	5731
SLC25A34	3	0.74	no change in migration or cell number	4806
SLC25A34	4	0.92	no change in migration or cell number	5412
CHD4	1	0.92	no change in migration or cell number	5688
CHD4	2	0.74	no change in migration or cell number	5814
CHD4	3	0.94	no change in migration or cell number	5884
CHD4	4	1.04	no change in migration or cell number	5538
GNAS	1	0.06 (active)	migration reduced	3842
GNAS	2	0 (active)	migration reduced	4314
GNAS	3	0.67	no change in migration or cell number	4448
GNAS	4	0.2 (active)	migration reduced	5409
TNK1	1	-0.13 (active)	migration reduced	3832
TNK1	2	0.67	no change in migration or cell number	6136
TNK1	3	0.66	no change in migration or cell number	5948
TNK1	4	0.92	no change in migration or cell number	6092
STOX2	1	0.8	no change in migration or cell number	4181
STOX2	2	0.92	no change in migration or cell number	5634
STOX2	3	1.05	no change in migration or cell number	5234
STOX2	4	1.02	no change in migration or cell number	6344
SUPT4H1	1	1.03	no change in migration or cell number	6238
SUPT4H1	2	0.77	no change in migration or cell number	6256
SUPT4H1	3	0.55 (active)	migration reduced	5081
SUPT4H1	4	0.67	no change in migration or cell number	5336

Copied from the list:
Under “migration relative to mock”, PPIA #1 is entered as 1.19
TPO #1, mean nuclei count = 4269 (active)
Entry of CHD4 #2 under “migration and cell number class”: no change in migration or cell number
EFNA3 #4, migration and cell number class → migration reduced (active)
For “migration and cell number class”, SUPT4H1 #3 has migration reduced (active)
Entry for PGAM5 #4 in “migration and cell number class”: no change in migration or cell number
